Data as given in PubChem BioAssay AID504786 (Drosophila RNAi Screening Center, 2011)
Test: 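Positive regulators of HIF-driven reporter output in Drosophila cells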 (primary screen). Cells: Drosophila S2 cells with a stable HIF luciferase reporter. Knock-down reagent: long dsRNA against Drosophila genes, about 0.2 µg dsRNA per well of a 384-well plate. Duration: three days of knock-down, then 20 h of DFO before reading. Treatment: desferrioxamine (DFO) at 100 µM, an iron chelator that mimics hypoxia, for 20 h. Detection: 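HIF reporter luminescence in cells given 100 µM DFO for 20 h, using the mouse ldh-a hypoxia-response element, scored as per-plate z-scores; higher means greater loss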. Reading the numbers: z-score: higher = stronger loss of HIF reporter signal.
The screen tested about 21,000 reagents; below is an unselected part of those that have a named target and a result. 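Primary screen; positive scores mean lost reporter signal, so the sign may be inverted from the usual convention.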 The numbers tell different reagents against one gene apart. A plus sign joins genes that one reagent is predicted to hit. No sequences are given here.

Gene | dsRNA no. | z-score, replicate 1 | z-score, replicate 2 | z-score, replicate 3 | z-score, replicate 4
lncRNA:CR32657 (long non-coding RNA:CR32657) | 1 | -0.2 | -0.4 | – | –
CG43861 | 1 | -0.3 | -0.1 | – | –
P5CS (Delta[1]-pyrroline-5-carboxylate synthase) | 1 | -0.3 | -0.7 | – | –
P5CS (Delta[1]-pyrroline-5-carboxylate synthase) | 2 | -0.3 | -0.5 | – | –
Got1 (Glutamate oxaloacetate transaminase 1) | 1 | -0.3 | -0.2 | – | –
PGRP-SA (Peptidoglycan recognition protein SA) | 1 | -0.3 | 0.2 | – | –
rod (rough deal) | 1 | -0.3 | 0 | – | –
Targ3 (Terminal ADP-ribose protein glycohydrolase 3) | 1 | 0.2 | -0.3 | – | –
Pect (Phosphoethanolamine cytidylyltransferase) | 1 | -0.4 | -0.7 | – | –
Pect (Phosphoethanolamine cytidylyltransferase) | 2 | -0.2 | -0.1 | – | –
Eglp2 (Entomoglyceroporin 2) | 1 | -0.2 | -0.1 | – | –
Nipsnap | 1 | -0.3 | -0.1 | – | –
Ras64B (Ras oncogene at 64B) | 1 | -0.4 | -0.6 | – | –
Slip1 (SLo interacting protein 1) | 1 | -0.2 | -0.1 | – | –
eIF3e (eukaryotic translation initiation factor 3 subunit e) | 1 | 6.4 | 5.3 | – | –
Cpr47Ee (Cuticular protein 47Ee) | 1 | 2.6 | 5.1 | – | –
Dic3 | 1 | -0.4 | -0.4 | – | –
CG11380 | 1 | -0.2 | 0.3 | – | –
CG4553 | 1 | -0.3 | -0.4 | – | –
Or45a (Odorant receptor 45a) | 1 | -0.3 | -0.6 | – | –
lili (lilipod) | 1 | -0.1 | -0.2 | – | –
pug (pugilist) | 1 | 0.2 | 0 | – | –
CG14143 | 1 | -0.3 | -0.5 | – | –
CG13058 | 1 | -0.3 | -0.5 | – | –
CG2906 | 1 | -0.3 | -0.7 | – | –
Nuak (Nuak family kinase) | 1 | -0.3 | -0.2 | – | –
Nuak (Nuak family kinase) | 2 | -0.4 | -0.4 | – | –
Nuak (Nuak family kinase) | 3 | -0.3 | -0.3 | – | –
Spn (Spinophilin) | 1 | -0.3 | 0 | – | –
Spn (Spinophilin) | 2 | -0.3 | -0.3 | – | –
Spn (Spinophilin) | 3 | 0.6 | 0 | – | –
CG3987 | 1 | -0.4 | -0.2 | – | –
CG31296 | 1 | -0.2 | -0.1 | – | –
Ist1 | 1 | -0.3 | 0.1 | – | –
sut4 (sugar transporter 4) | 1 | -0.3 | -0.3 | – | –
Fatp3 (Fatty acid transport protein 3) | 1 | -0.1 | 0 | – | –
AANATL5 (Arylalkylamine N-acetyltransferase-like 5) | 1 | -0.3 | -0.7 | – | –
CG6689 | 1 | -0.4 | -0.2 | – | –
GNBP-like3 (GNBP-like 3) | 1 | -0.2 | 0.2 | – | –
CG8281 | 1 | -0.4 | -0.3 | – | –
nmd (no mitochondrial derivative) | 1 | -0.2 | -0.9 | – | –
CG8369 | 1 | 0.3 | -0.4 | – | –
Lsp1gamma (Larval serum protein 1 gamma) | 1 | 0.4 | 0.4 | – | –
Act79B (Actin 79B) | 1 | 0.3 | 0.4 | – | –
CG34034 | 1 | -0.3 | -0.2 | – | –
Rab3-GEF (Rab3 GDP-GTP exchange factor) | 1 | -0.4 | 0.2 | – | –
Rab3-GEF (Rab3 GDP-GTP exchange factor) | 2 | -0.1 | 0.5 | – | –
Rab3-GEF (Rab3 GDP-GTP exchange factor) | 3 | 3.5 | 1.3 | – | –
CG5612 | 1 | 0.1 | 0.5 | – | –
CG13983 | 1 | -0.4 | -0.4 | – | –
Grp170 (Grp170 co-chaperone) | 1 | -0.4 | -0.6 | – | –

Entries listed so far whose target name begins with R or r (5):
Gene | dsRNA no. | z-score, replicate 1 | z-score, replicate 2 | z-score, replicate 3 | z-score, replicate 4
rod (rough deal) | 1 | -0.3 | 0 | – | –
Ras64B (Ras oncogene at 64B) | 1 | -0.4 | -0.6 | – | –
Rab3-GEF (Rab3 GDP-GTP exchange factor) | 1 | -0.4 | 0.2 | – | –
Rab3-GEF (Rab3 GDP-GTP exchange factor) | 2 | -0.1 | 0.5 | – | –
Rab3-GEF (Rab3 GDP-GTP exchange factor) | 3 | 3.5 | 1.3 | – | –

Further entries follow:
Gene | dsRNA no. | z-score, replicate 1 | z-score, replicate 2 | z-score, replicate 3 | z-score, replicate 4
CG17508 | 1 | -0.3 | -0.2 | – | –
r-l (rudimentary-like) | 1 | -0.3 | -0.3 | 0.2 | 1.5
Pi4KIIIalpha (Phosphatidylinositol 4-kinase III alpha) | 1 | -0.1 | -0.8 | – | –
CG32845 | 1 | -0.3 | -0.5 | – | –
IFT52 (Intraflagellar transport 52) | 1 | -0.3 | -0.5 | – | –
Prdm13 (PR/SET domain 13) | 1 | -0.3 | -1 | – | –
nAChRalpha2 (nicotinic Acetylcholine Receptor alpha2) | 1 | -0.2 | 0 | – | –
CG15531 | 1 | -0.4 | -0.3 | – | –
Dyb (Dystrobrevin) | 1 | -0.3 | -0.9 | -0.2 | -0.1
CG33552 | 1 | 0.1 | 0.8 | – | –
Bet5 (Blocked early in transport 5) | 1 | -0.8 | -0.1 | – | –
EDTP (Egg-derived tyrosine phosphatase) | 1 | -0.4 | -0.5 | – | –
CG42579 | 1 | -0.5 | -0.3 | – | –
GstT3 (Glutathione S transferase T3) | 1 | -0.2 | -0.1 | – | –
upd1 (unpaired 1) | 1 | -0.3 | -0.3 | – | –
CG3402 | 1 | -0.2 | -0.1 | – | –
Oatp33Eb (Organic anion transporting polypeptide 33Eb) | 1 | -0.2 | 0 | – | –
CG7362 | 1 | 0 | -0.2 | – | –
NetB (Netrin-B) | 1 | -0.2 | -0.1 | – | –
PIG-G (Phosphatidylinositol glycan anchor biosynthesis class G) | 1 | 0.1 | 0.4 | – | –
CG40551 (retired record) | 1 | -0.7 | -0.2 | – | –
CG15260 | 1 | -0.1 | -0.4 | – | –
TwdlZ (TweedleZ) | 1 | -0.2 | -0.4 | – | –
CG13059 | 1 | -0.2 | -0.4 | – | –
CG4612 | 1 | -0.2 | -0.2 | – | –
CNT1 + CG13742 | 1 | -0.1 | -0.4 | – | –
Arl5 (ADP-ribosylation factor-like 5) | 1 | -0.1 | -0.2 | – | –
Dref (DNA replication-related element factor) | 1 | 1.9 | 0.9 | – | –
CG14417 | 1 | -0.2 | -0.3 | – | –
CG31007 | 1 | -0.2 | -0.4 | – | –
CG2100 | 1 | -0.3 | -0.2 | – | –
Grl40a (Gustatory receptor-like 40a) | 1 | -0.1 | -0.2 | – | –
